# Measurements from patent publication US7824687B2 (Sloan-Kettering Institute For Cancer Research, priority 1999, dated 2010).
# Experiment: general procedure: solution-phase peptide synthesis
Substance,step yield (coupling step),step yield (late stage modification step)
Fmoc-Nle(α-Tn)-Nle(α-Tn)-Nle(α-Tn)-Gly-OtBu,78%,
Fmoc-Nle(α-TF)-Nle(α-TF)-Nle(α-TF)-Gly-OtBu,88%,
Cbz-Gly-Nle(α-Tn)-Nle(α-Tn)-Nle(α-Tn)-Gly-OtBu,80%,
H-Gly-Nle(α-Tn)-Nle(α-Tn)-Nle(α-Tn)-Gly-OtBu,,77%
